We go through one molecule from patent US20250367575A1 (PUROLITE, published 2025).

Experiment [1] deals with Belimumab (IgG1). Nature of the experiment: dynamic binding capacity at 10% breakthrough, ligand coupled to resin, 6 min residence time, 2.2 mg/ml Belimumab.
Experiment [2] concerns the target Belimumab (IgG1). Nature of the experiment: method not given; paragraph 95 says KD values are by surface plasmon resonance at 22 C +/- 3 C unless indicated otherwise. (SPR reads the build-up and loss of mass on a sensor chip optically.)

B1: affinity ligand SEQ ID NO: 2 (designed binder)
chain: AQHDKIQQAAFHEILHLPNLTEEQRNKFIQSLRDDPSVSLEILCEAKKLNDAQAPKIAAQHDKIQQAAFHEILHLPNLTEEQRNKFIQSLRDDPSVSLEILAEAKKLNDAQAPK
The Kd is the free concentration of one partner at which half of the binding sites on the other are occupied at equilibrium, for simple one-to-one binding. Higher therefore signals weaker binding. For B1, in the experiment with Belimumab (IgG1) [1], the “DBC10% (dynamic binding capacity) relative to cs26” value was 104 % of cs26. This molecule returned a Kd with Belimumab (IgG1) [2] of 47.4 nM.
